Here are results for 1 compound from patent US6455590B1, “Deprenyl compounds for treatment of glaucoma” (University of Toronto Innovations.Foundation, priority 1995, dated 2002).

The data set has as its system retinal ganglion cells projecting to the superior colliculus (RGC^SCs) / RGCL neuronal cell bodies. The experiment in a line: Optic nerve crush in rats: counts of Nissl-stained and Fluoro-Gold-labelled cell bodies in the retinal ganglion cell layer. Format: in vivo. An excerpt:
All animals were handled according to the Declaration of Helsinki and The Guiding Principles in the Care and Use of Animals. […] The injections were delivered from a 10 microliter Hamilton syringe over a period of fifteen minutes.
It has been reported that 40-50% of the neurons whose cell bodies are located in the retinal ganglion cell layer (RGCL) of the rat send an axon to the optic nerve and are RGCs (Cowey et al. (1979) Exp. Brain Res. 35, 457-64; Perry V. H. (1981) Neuroscience 6, 931-44: and Linden et al. (1989) Brain Res. 272, 145-149). […]
One group of eight rats received (−)-deprenyl (1 mg/kg) by intraperitoneal (IP) injection every two days for a fourteen day period beginning at the time of optic nerve crush. […] Serial 10 mm sections were cut through the upper brain stem and diencephalon of the animals and viewed under fluorescence microscopy to determine the location and extent of the stereotactic injections of FG. […] In order to detect even low level FG fluorescence in neuronal cell bodies or processes, the FG labelled brain sections and the retinal sections were examined with the aid of a Hamarmatsu intensification camera that allowed the fluorescent images to be digitized using a Matrox frame grabber controlled by image analysis software (Universal Metamorph). […]

With `C#CCN(C)C(C)Cc1ccccc1` (single isomer, unassigned; (-)) [(−)-deprenyl, N,α-dimethyl-N-2-propynylphenethylamine], the “RGC^SCs as percentage of the mean value of the distribution for the uncrushed saline retinas” value (uncrushed optic nerve, FIG. 3) is listed as 87.0+/−15.2%. In addition, under “uncrushed retinas, FIG. 2”, the “slope of FG labelled versus Nissl stained cell body counts” value is 0.379+/−0.021.
